# Experimental data: patent US12486240B2, “Oxadiazole compounds for controlling or preventing phytopathogenic fungi” (PI INDUSTRIES LTD., priority 2019, dated 2025)
# Some results were stated once for a whole list of compounds, not compound by compound.
# Test system: Alternaria solani
# Test: Alternaria solani mycelial radial growth test on potato dextrose agar
# Type: cell-based
# Conditions: 300 ppm, 25° C., 60% relative humidity, seven days
row,SMILES,control (radial growth compared to untreated control)
1,"CN1CCN(c2c(NCc3ccc(-c4noc(C(F)(F)F)n4)cc3)c(=O)c2=O)CC1 [Compound 29, 3-(4-methylpiperazin-1-yl)-4-((4-(5-(trifluoromethyl)-1,2,4-oxadiazol-3-yl)benzyl)amino)cyclobut-3-ene-1,2-dione]",≥ 70%
2,"CN(Cc1ccc(-c2noc(C(F)(F)F)n2)cc1)c1c(NCc2ccc(Cl)cc2)c(=O)c1=O [Compound 64, 3-((4-chlorobenzyl)amino)-4-(methyl(4-(5-(trifluoromethyl)-1,2,4-oxadiazol-3-yl)benzyl)amino)cyclobut-3-ene-1,2-dione]",≥ 70%
3,"COc1ccccc1CNc1c(N(C)Cc2ccc(-c3noc(C(F)(F)F)n3)cc2)c(=O)c1=O [Compound 78, 3-((2-methoxybenzyl)amino)-4-(methyl(4-(5-(trifluoromethyl)-1,2,4-oxadiazol-3-yl)benzyl)amino)cyclobut-3-ene-1,2-dione]",≥ 70%

# Test system: Colletotrichum capsici
# Test: Colletotrichum capsici mycelial radial growth test on potato dextrose agar
# Type: cell-based
# Conditions: 300 ppm, 25° C., 60% relative humidity, seven days
row,SMILES,control (radial growth compared to untreated control)
1,"O=c1c(NCc2ccc(-c3noc(C(F)(F)F)n3)cc2)c(Nc2ccccc2)c1=O [Compound 82, 3-(phenylamino)-4-((4-(5-(trifluoromethyl)-1,2,4-oxadiazol-3-yl)benzyl)amino)cyclobut-3-ene-1,2-dione]",≥ 70%
2,"CN1CCN(c2c(Nc3ccc(-c4noc(C(F)(F)F)n4)cc3)c(=O)c2=O)CC1 [Compound 16, 3-(4-methylpiperazin-1-yl)-4-((4-(5-(trifluoromethyl)-1,2,4-oxadiazol-3-yl)phenyl)amino)cyclobut-3-ene-1,2-dione]",≥ 70%
3,"O=C1CN(c2c(Nc3ccc(-c4noc(C(F)(F)F)n4)cc3)c(=O)c2=O)CCN1 [Compound 13, 3-(3-oxopiperazin-1-yl)-4-((4-(5-(trifluoromethyl)-1,2,4-oxadiazol-3-yl)phenyl)amino)cyclobut-3-ene-1,2-dione]",≥ 70%
4,"C=CCN(C)c1c(NCc2ccc(-c3noc(C(F)(F)F)n3)cc2)c(=O)c1=O [Compound 24, 3-(allyl(methyl)amino)-4-((4-(5-(trifluoromethyl)-1,2,4-oxadiazol-3-yl)benzyl)amino)cyclobut-3-ene-1,2-dione]",≥ 70%
5,"COCCNc1c(NCc2ccc(-c3noc(C(F)(F)F)n3)cc2)c(=O)c1=O [Compound 19, 3-((2-methoxyethyl)amino)-4-((4-(5-(trifluoromethyl)-1,2,4-oxadiazol-3-yl)benzyl)amino)cyclobut-3-ene-1,2-dione]",≥ 70%
